Experimental data taken from US20260276660A1, “DETERMINATION OF PROGESTOGENS NON-INVASIVELY IN ANIMALS” (Vetcare Oy, priority 2023, published 2026).

Assays:
Design in all cases: species or system dog
[1] = Quantitative measurement of urinary 5α-PtG with LC-HRMS
[2] = Urinary rapid test (lateral flow immunochromatographic test) for 5α-PtG detection; settings: anestrus phase sample set as 100%
[3] = Semi-quantitative LC-HRMS analysis of urinary progestogen glucuronides; settings: for amount found in dog urine: m/z 495 [M-H]-, diestrus phase urine
[4] = urine, eight bitches, EIC area m/z 495

C[C@@H](O)[C@H]1CC[C@H]2[C@@H]3C[C@H](O[C@@H]4O[C@H](C(=O)O)[C@@H](O)[C@H](O)[C@H]4O)[C@H]4C[C@@H](O)CC[C@]4(C)[C@H]3CC[C@]12C [5α-PtG, 5α-pregnane-3β,6α,20β-triol-6-O-β-D-glucuronide]
average concentration of urinary 5α-PtG (sum of PtG1 and PtG2) ([1]; four days after ovulation, eight bitches): 2.5 µM | increase of 5α-PtG concentration ([1]; from beginning of LH peak to estimated onset of ovulation, vs average before estimated LH peak): over 100% | increase of 5α-PtG concentration ([1]; six-day period, from -2 to +4 days from estimated onset of ovulation): 800% | intensity of the test line ([2]; diestrus phase urine): ~10% | intensity of the test line ([2]; oestrus phase urine): ~50% | intensity of the test line ([2]; proestrus phase urine): approximately 90%

5β-pregnane-3α,20β-diol glucuronide [PdGβ]
area of PdGβ (extracted ion chromatogram) from the area of 5α-PtG, average ([1]; urine, average in eight bitches): 4.3% | average ratio between PdGβ and PdGα [3, 4]: 5.0 | ratio between PdGβ and PdGα, range [3, 4]: 1.0-14.7

C[C@H](O)[C@H]1CC[C@H]2[C@@H]3CC[C@@H]4C[C@H](O[C@@H]5O[C@H](C(=O)O)[C@@H](O)[C@H](O)[C@H]5O)CC[C@]4(C)[C@H]3CC[C@]12C [PdG, 5β-pregnane-3α,20α-diol-3-glucuronide]
amount found in dog urine [3]: only in traces

5β-pregnane-3α,6α,20α/β-triol-glucuronides
area of the corresponding peak from the abundant urinary PtG metabolite ([3]; dog urine, diestrus phase, EIC m/z 511): 0.9-1.1% | amount found in dog urine [3]: Only traces
